Results of single-concentration screens

Sequences of proteins named here, by UniProt entry; tags and fusion partners are left off. Residues count along the entry.
UniProt Q4DA54, 1-478: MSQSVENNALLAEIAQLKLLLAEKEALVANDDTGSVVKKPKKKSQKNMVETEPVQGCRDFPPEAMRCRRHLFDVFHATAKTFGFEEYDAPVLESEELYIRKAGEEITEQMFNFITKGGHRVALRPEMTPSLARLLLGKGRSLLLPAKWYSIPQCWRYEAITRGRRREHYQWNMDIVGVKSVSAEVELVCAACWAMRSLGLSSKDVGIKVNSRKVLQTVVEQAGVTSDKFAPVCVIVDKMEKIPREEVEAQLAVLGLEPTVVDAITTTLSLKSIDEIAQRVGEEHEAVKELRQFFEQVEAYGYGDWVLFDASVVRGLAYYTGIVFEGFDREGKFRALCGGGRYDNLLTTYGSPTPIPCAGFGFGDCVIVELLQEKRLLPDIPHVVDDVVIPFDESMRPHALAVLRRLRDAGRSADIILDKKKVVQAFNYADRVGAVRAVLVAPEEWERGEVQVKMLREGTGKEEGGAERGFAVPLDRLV

Each number is a percent effect as filed.
How 0% and 100% were set is not recorded. Most values in the screen are low, and negative values occur.
The compounds are a random part of those screened.

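Enzyme assay of histidyl-tRNA synthetase; the read-out is not stated. Target: Histidine-tRNA ligase, Trypanosoma cruzi CL Brener (UniProt Q4DA54). Concentration: 30 µM. Higher reads as stronger inhibition (inferred: compounds with an IC50 in retests scored well above the rest). Of about 69,000 compounds tested this way, about 31 (0.045%) reached 50% or more in at least one test.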

{"compound": "O=C(NS(=O)(=O)c1ccc2c(c1)CCC2)C1COCCO1", "stereo": "stereo not given", "Percent Effect": 5.195}
{"compound": "COc1cccc(N2CCN(C(=O)C(OC)c3ccccc3)CC2=O)c1", "stereo": "stereo not given", "Percent Effect": -0.8333}
{"compound": "Cc1[nH]ncc1C(=O)N1CCCC1c1noc(C2CC2)n1", "stereo": "stereo not given", "Percent Effect": 2.305}
{"compound": "Fc1cnc(N2CCCC3(CCN(Cc4ccsc4)C3)C2)nc1", "stereo": "stereo not given", "Percent Effect": 4.918}
{"compound": "CCN(Cc1ncc(C(C)(C)C)o1)Cc1ccccc1C", "Percent Effect": -42.35}
{"compound": "CCN(C)C(=O)c1coc(COc2ccccc2)n1", "Percent Effect": 0.8}
{"compound": "Cc1ccccc1OCCN1CCCC1CS(N)(=O)=O", "stereo": "stereo not given", "Percent Effect": 0}
{"compound": "CC(O)(CCc1ccccc1)CNC(=O)c1ccsc1", "stereo": "stereo not given", "Percent Effect": 6.186}
{"compound": "Cc1ccc(C)c(NC(=O)N(C)Cc2cnn(C)c2)c1", "Percent Effect": 3.008}
{"compound": "OCC1CCCN1c1cc(NCc2ccc(Cl)s2)ncn1", "stereo": "stereo not given", "Percent Effect": 5.639}
{"compound": "CN(Cc1ccccc1O)C(=O)Nc1cc(F)cc(N2CCCC2)c1", "Percent Effect": 7.182}
{"compound": "CC(C)CN1CC[C@@H]2[C@@H]1CCN2C(=O)N1CCCC1", "Percent Effect": 5.376}
{"compound": "Cc1ncsc1C(=O)N1CCN(CCC(C)C)CC1", "Percent Effect": 2.513}
{"compound": "FC(F)(F)c1cccc(OC2CCN(Cc3ncc[nH]3)CC2)c1", "Percent Effect": 4.348}
{"compound": "COc1cccc(OCC(=O)NCc2ccc3[nH]c(=O)[nH]c3c2)c1", "Percent Effect": 0.4292}
{"compound": "O=C(NC1CC2(CCN(CCO)CC2)c2ccccc21)c1ccsc1", "stereo": "stereo not given", "Percent Effect": 5.063}
{"compound": "Cc1cccc(-n2cnnc2CCCN2CCOCC2)c1", "Percent Effect": 2.4}
{"compound": "CCn1cc(CN2C[C@H]3CC[C@@H]2CN(C(=O)c2cnccn2)C3)cn1", "Percent Effect": 5.806}
{"compound": "Cn1nc(Br)c2c(=O)n(CCc3ccccc3)cnc21", "Percent Effect": -1.786}
{"compound": "CCN(CC)C(=O)c1nc2c(s1)CCN(Cc1cccc(OC)c1)CC2", "Percent Effect": 8.021}
{"compound": "Cc1noc(C2CCCN(C(=O)c3cc(Cl)cn3C)C2)n1", "stereo": "stereo not given", "Percent Effect": 7.955}
{"compound": "COc1ccc(C)cc1CN(C)Cc1nc2c(cnn2C)c(=O)[nH]1", "Percent Effect": 1.515}
{"compound": "CN(C)CC1(O)CCN(C(=O)Cc2ccc3c(c2)CCC3)C1", "stereo": "stereo not given", "Percent Effect": 3.714}
{"compound": "NCC1CN(c2nc(-c3ccccc3)nc3c2CCNCC3)CCO1", "stereo": "stereo not given", "Percent Effect": 5.785}
{"compound": "Cc1ccc(N2CCC(C3CCN(CC(C)C)CC3)C2)nn1", "stereo": "stereo not given", "Percent Effect": 3.865}
{"compound": "CCn1cc2c(n1)CN(Cc1sccc1C)CC2COCC1CC1", "stereo": "stereo not given", "Percent Effect": 0.9852}
{"compound": "Cc1cnn(CC2CN(Cc3nc4ccccc4nc3C)CCO2)c1", "stereo": "stereo not given", "Percent Effect": 1.887}
{"compound": "Cc1nc[nH]c1C(=O)N1CCC2(CC1)CN(CCN(C)C)C(=O)O2", "Percent Effect": 7.447}
{"compound": "CN(CCc1ccccc1)C(=O)c1cccnc1OCC(F)(F)F", "Percent Effect": -2.273}
{"compound": "Nc1ncc(C(=O)N2CCN(c3nccs3)CC2)cc1Cl", "Percent Effect": 1.345}
{"compound": "CNC(=O)Cc1ccc(-n2ccnc2-c2cccc(C(=O)O)c2)cc1", "Percent Effect": 4.04}
{"compound": "CN(C(=O)CN(Cc1cccc(O)c1)C1CCC(O)CC1)C1CC1", "stereo": "stereo not given", "Percent Effect": 5.946}
{"compound": "O=C(c1ccc(COc2ccc(Cl)cc2)o1)N1N=CCC1(O)C(F)(F)F", "stereo": "stereo not given", "Percent Effect": 2.591}
{"compound": "Cc1ccccc1-n1cc(-c2ccnc(N[C@@H](CO)C(C)C)n2)cn1", "Percent Effect": 5.195}
{"compound": "COCC1c2nnn(CC3CC3)c2CCN1C(=O)c1ccnnc1", "stereo": "stereo not given", "Percent Effect": 3.39}
{"compound": "O=c1[nH]c2c(c(=O)n1C1CCCCC1)CCC2Nc1ccc(Cl)cc1", "stereo": "stereo not given", "Percent Effect": -0.5848}
{"compound": "Cc1cc(F)ccc1N1CCCC(NS(=O)(=O)CCCF)C1=O", "stereo": "stereo not given", "Percent Effect": 8.621}
{"compound": "CC(=O)NCCC1CCCCN1S(=O)(=O)c1cccc(C#N)c1", "stereo": "stereo not given", "Percent Effect": -1.653}
{"compound": "CC(Nc1ccc(C(F)(F)F)cc1C#N)c1cccc(S(N)(=O)=O)c1", "stereo": "stereo not given", "Percent Effect": 8.333}
{"compound": "O=C(NC1CC1)N1CC[C@@H](O)[C@@H]1Cc1ccccc1", "Percent Effect": 5.288}
{"compound": "COc1cc(CC(=O)Nc2cccc(C(=O)N(C)C)n2)ccc1C", "Percent Effect": 16.26}
{"compound": "Cc1cnn(CC2CCCN2c2ncnc3sccc23)c1", "stereo": "stereo not given", "Percent Effect": 6.122}
{"compound": "CCc1ccccc1OCCN1C[C@@H](NS(C)(=O)=O)[C@H](C(C)C)C1", "Percent Effect": 2.809}

Measurements from “University of Dundee, Small-Polar-MMV Screening Library” (2021), ChEMBL document CHEMBL3988442.